Experimental data taken from patent publication US20260053833A1, “COMPOSITIONS AND METHODS FOR TREATING CARDIOMYOPATHIES” (THE BOARD OF REGENTS OF THE UNIVERSITY OF TEXAS SYSTEM, priority 2022, published 2026).
For at least one compound, name, drawing or mass did not settle the structure.

System: genetically corrected DCM iPSCs
Experiment: Contraction velocity of genetically corrected DCM iPSC-CMs
Assay type: cell-based, human
Conditions: two dose levels; zoledronic acid 30 or 300, pamidronate 100 or 1000, risedronate 2 or 10 ng/ml
Method: Next, healthy, DCM patient-specific iPSCs showing K210del, and genetically corrected patient specific iPSCs were collected and reprogramed from human peripheral blood mononuclear cells (PBMCs) to account for their morphology, pluripotency, trilineage differentiation across endoderm, mesoderm, and ectoderm (FIGS. 3A-3G). Then, the contraction velocity was tested showing the ability of genetically corrected DCM to restore contraction, compared to DCM patient-derived iPSCs (FIGS. 3H-3I). Next, the potential of bisphosphonate family members (zoledronate, pamidronate, and risedronate) to restore the contraction velocity for DCM patient-derived iPSCs and genetically corrected DCM was tested.
Differentiation of hiPSCs into hiPSC-CMs. hiPSCs were split at 1:12 ratio using Accutase solution (Sigma-Aldrich). […]
Contractility analysis. hiPSC-CMs were dissociated using TrypLE Select Enzyme (10×) (Thermo Fisher Scientific) for 5 minutes at 37° C. […] Phase-contrast cell motion movies of cardiomyocyte contraction were recorded using the Sony SI8000 cell motion imaging system (37° C. and 5% CO2). […] Video images of the hiPSC-CMs were recorded for 10 seconds, at a frame rate of 75 frames per second (fps), and a resolution of 1,024×1,024 pixels using a 10× objective. […]

## O=P(O)(O)C(O)(Cn1ccnc1)P(=O)(O)O [zoledronate, zoledronic acid]
  contraction velocity: did not show any change
